Values quoted from earlier work, collected in US20250064763A1, “METHODS OF TREATMENT OF PRIMARY BILIARY CHOLANGITIS” (Ipsen Pharma, priority 2023, published 2025).
At least one structure is not confirmed: it was looked up by name or label, or the drawing left a doubt.

Assays:
[1] = test system: participants with PBC and an inadequate response to UDCA; settings: 100 participants, 24 months of treatment; placebo 0% (p<0.001); cited from earlier work
[2] = test system: cholestatic pruritus (due to PBC, PSC and SSC); settings: compared with placebo; cited from earlier work
patients with PBC [3] = settings: OCA alone or in combination with UDCA; ALP<1.67×ULN and ≥15% decrease from baseline and normal total bilirubin; cited from earlier work
patients with PBC [4] = settings: cited from earlier work

CC(C)(Oc1ccc(CCNC(=O)c2ccc(Cl)cc2)cc1)C(=O)O [bezafibrate]
patients with complete biochemical response [1]: 31%
reduction in moderate to severe pruritus [2]: greater reduction in moderate to severe pruritus compared with placebo

CC[C@H]1[C@@H](O)[C@@H]2[C@H](CC[C@]3(C)[C@@H]([C@H](C)CCC(=O)O)CC[C@@H]23)[C@@]2(C)CC[C@@H](O)C[C@@H]12 [OCA, obeticholic acid]
patients achieving a biochemical response based on ALP reduction (patients with PBC [3]): Less than 50%

C[C@H](CCC(=O)O)[C@H]1CC[C@H]2[C@@H]3[C@@H](O)C[C@@H]4C[C@H](O)CC[C@]4(C)[C@H]3CC[C@]12C [UDCA, ursodeoxycholic acid]
UDCA treated patients with an inadequate response (patients with PBC [4]; daily dose of 13 to 15 mg/kg/day): up to 40%
effect on liver biomarkers, disease progression, transplant free survival (patients with PBC [4]; in vivo): improve liver biomarkers of response, slow down the disease progression, and improve transplant free survival
effect on onset or amelioration of symptoms, including pruritus and fatigue (patients with PBC [4]; in vivo): has not demonstrated an effect
